The entries are a selection whose mix differs from that of the whole data set. For some of these results: At the low end of the ranking the order means little. Some of the results follow. For some of these results: The source does not settle which construct or isoform was used.
Tests used:
HSF1 = HSF1 (UniProt Q00613); assay: DAPPL (digital affinity profiling via proximity ligation, sequencing); details: 10 mM Tris-HCl pH 7.5, 50 mM NaCl, 1 mM DTT, 4% glycerol, room temperature, 30 min; GST-TFs on glutathione beads, 16-mer random dsDNA library, 0.1% …; high values mean tight binding; double strand, one strand shown; scale: fold enrichment (6-mer frequency, TF over GST control)
ELF2 = target: T1, ELF2 (UniProt Q15723); assay: as above; details: 10 mM Tris-HCl pH 7.5, 50 mM NaCl, 1 mM DTT, 4% glycerol, room temperature, 30 min; GST-TFs on glutathione beads, 16-mer random dsDNA library, 0.1% …; high values mean tight binding; double strand, one strand shown; scale: fold enrichment (6-mer frequency, TF over GST control)
T1 sequence: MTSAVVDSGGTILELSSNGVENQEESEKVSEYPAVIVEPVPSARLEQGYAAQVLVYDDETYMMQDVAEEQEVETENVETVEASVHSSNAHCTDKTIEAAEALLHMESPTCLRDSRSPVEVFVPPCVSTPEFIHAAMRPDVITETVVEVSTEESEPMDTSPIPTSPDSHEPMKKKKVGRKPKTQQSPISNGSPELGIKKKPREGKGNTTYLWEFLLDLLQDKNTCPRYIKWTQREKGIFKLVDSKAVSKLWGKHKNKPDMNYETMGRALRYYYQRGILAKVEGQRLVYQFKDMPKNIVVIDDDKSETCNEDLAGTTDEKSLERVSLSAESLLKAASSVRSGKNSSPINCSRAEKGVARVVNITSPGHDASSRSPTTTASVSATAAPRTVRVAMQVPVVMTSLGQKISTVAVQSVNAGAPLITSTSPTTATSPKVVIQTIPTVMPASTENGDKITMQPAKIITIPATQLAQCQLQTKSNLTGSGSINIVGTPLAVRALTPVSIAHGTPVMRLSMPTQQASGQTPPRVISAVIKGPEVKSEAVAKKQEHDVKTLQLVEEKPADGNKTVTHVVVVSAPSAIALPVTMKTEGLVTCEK

Protein sequences, listed by entry. Tags and fused reporters are not part of them. Lines headed by an entry give the natural chain unless they say otherwise; changes in a name come on top.
UniProt Q00613: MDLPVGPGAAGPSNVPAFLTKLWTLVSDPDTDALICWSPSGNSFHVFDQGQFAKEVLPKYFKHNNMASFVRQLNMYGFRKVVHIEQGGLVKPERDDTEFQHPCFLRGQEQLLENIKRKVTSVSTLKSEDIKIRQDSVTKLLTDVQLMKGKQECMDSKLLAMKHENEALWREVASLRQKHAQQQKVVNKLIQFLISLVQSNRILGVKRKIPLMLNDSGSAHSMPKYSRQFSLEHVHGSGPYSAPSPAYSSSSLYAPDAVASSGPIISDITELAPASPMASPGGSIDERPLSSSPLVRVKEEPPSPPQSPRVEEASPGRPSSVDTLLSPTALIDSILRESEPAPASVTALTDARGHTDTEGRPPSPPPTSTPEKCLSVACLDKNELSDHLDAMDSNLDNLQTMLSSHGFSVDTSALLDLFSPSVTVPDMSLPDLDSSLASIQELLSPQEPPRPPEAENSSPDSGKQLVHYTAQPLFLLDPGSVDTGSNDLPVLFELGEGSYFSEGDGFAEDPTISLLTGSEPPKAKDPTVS

Sequence: TTGGGT
- binding signal (HSF1): 0.948
- binding signal (ELF2): 0.97

Sequence: GCCTCC
- binding signal (HSF1): 0.999
- binding signal (ELF2): 1.27

Sequence: GTCCAC
- binding signal (HSF1): 0.776
- binding signal (ELF2): 0.986

Sequence: TCGTTC
- binding signal (HSF1): 1.39
- binding signal (ELF2): 1.26

Sequence: TCTCGC
- binding signal (HSF1): 2.5
- binding signal (ELF2): 1.65

Sequence: CCCCGG
- binding signal (HSF1): 0.87
- binding signal (ELF2): 1.56

Sequence: ATTGCT
- binding signal (HSF1): 1.14
- binding signal (ELF2): 1.17

Sequence: CTTAGG
- binding signal (HSF1): 1.29
- binding signal (ELF2): 1.12

Sequence: GTCCCT
- binding signal (HSF1): 0.949
- binding signal (ELF2): 1.17

Sequence: ACGCTG
- binding signal (HSF1): 0.905
- binding signal (ELF2): 1.09

Sequence: CTGGGT
- binding signal (HSF1): 1.04
- binding signal (ELF2): 1.04

Sequence: GGTCCC
- binding signal (HSF1): 0.798
- binding signal (ELF2): 1.09

Sequence: TCACAT
- binding signal (HSF1): 0.998
- binding signal (ELF2): 1.24

Sequence: TGACAC
- binding signal (HSF1): 0.901
- binding signal (ELF2): 1.15

Sequence: CTACGA
- binding signal (HSF1): 1.25
- binding signal (ELF2): 1.22

Sequence: CGCGTC
- binding signal (HSF1): 1.02
- binding signal (ELF2): 1.18

Sequence: CTGGAT
- binding signal (HSF1): 2.19
- binding signal (ELF2): 1.29

Sequence: CCTATC
- binding signal (HSF1): 1.06
- binding signal (ELF2): 1.17

Sequence: CGGATA
- binding signal (HSF1): 0.757
- binding signal (ELF2): 1.56

Sequence: CTTGTC
- binding signal (HSF1): 1.07
- binding signal (ELF2): 1.27

Sequence: CTCTAG
- binding signal (HSF1): 2.39
- binding signal (ELF2): 1.22

Sequence: TTGCCG
- binding signal (HSF1): 0.948
- binding signal (ELF2): 1.08

Sequence: TACCCA
- binding signal (HSF1): 0.981
- binding signal (ELF2): 1.04

Sequence: GATATC
- binding signal (HSF1): 0.924
- binding signal (ELF2): 1.85

Sequence: GTACTC
- binding signal (HSF1): 0.958
- binding signal (ELF2): 1.07

Sequence: AGGCTC
- binding signal (HSF1): 1.14
- binding signal (ELF2): 1.07

Sequence: TCTCAC
- binding signal (HSF1): 1.3
- binding signal (ELF2): 1.23

Sequence: ACATAC
- binding signal (HSF1): 1.07
- binding signal (ELF2): 1.15

Sequence: ATACGT
- binding signal (HSF1): 0.986
- binding signal (ELF2): 1.07

Sequence: CCCTGG
- binding signal (HSF1): 1.11
- binding signal (ELF2): 1.09

Sequence: TAGTAA
- binding signal (HSF1): 1.54
- binding signal (ELF2): 1.03

Sequence: AATTGG
- binding signal (HSF1): 1.2
- binding signal (ELF2): 1.35

Sequence: TCCCTC
- binding signal (HSF1): 1.38
- binding signal (ELF2): 1.41

Sequence: AAAGGT
- binding signal (HSF1): 1.02
- binding signal (ELF2): 1.02

Sequence: CGCTCT
- binding signal (ELF2): 1.25

Sequence: ACGCCC
- binding signal (ELF2): 1.08

Sequence: TTCAGC
- binding signal (ELF2): 1.18

Sequence: TAGCAC
- binding signal (HSF1): 1.24
- binding signal (ELF2): 1.1

Sequence: GAAGTT
- binding signal (ELF2): 2.12

Sequence: ACTAAC
- binding signal (HSF1): 1.08
- binding signal (ELF2): 1.24

Sequence: CTTTTC
- binding signal (ELF2): 1.49

Sequence: TCTTAG
- binding signal (HSF1): 1.5
- binding signal (ELF2): 1.15

Sequence: TTCCGT
- binding signal (ELF2): 2.55

Sequence: CACAAT
- binding signal (HSF1): 0.965
- binding signal (ELF2): 1.1

— PMC7862700
